# PubChem BioAssay AID1224830 – NIAID | 2016
# Aim: 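Host factors that control LPS-induced TNF expression in human macrophages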 (primary screen)
# System: human THP-1 monocytic leukaemia cells, TNF dual-luciferase reporter clone, PMA-differentiated to macrophage-like cells
# Reagent: siRNA pool against human genes, 50 nM
# Timing: LPS for 4 h, given about 3 days after siRNA transfection
# Treatment: bacterial LPS (TLR4 ligand), 10 ng/ml
# Measurement: 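TNF firefly reporter luminescence divided by renilla, normalised to the plate median, then turned into a robust z-score for each replicate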
# Reading the numbers: TNF reporter robust z-score: higher = stronger TNF reporter response to LPS
# Rule for the call: 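Each well counts as active if its z-score is over 2.8 or under -1.5; controls are left without a call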
# This is an unselected part of about 18,000 reagents tested. About 2,900 of them (16%) count as active. 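Calls are made per well; low scores hint the gene aids the LPS response, high scores that it dampens it.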 Repeated entries: four replicate wells of each siRNA pool. No sequences are given here.
The opening 3 records as a preview:
gene knocked down,TNF reporter robust z-score,Call
MICALL1 (MICAL like 1),0.29,inactive
MICALL1 (MICAL like 1),0.69,inactive
MICALL1 (MICAL like 1),0.17,inactive

The listing, from the start:
gene knocked down,TNF reporter robust z-score,Call
MICALL1 (MICAL like 1),0.29,inactive
MICALL1 (MICAL like 1),0.69,inactive
MICALL1 (MICAL like 1),0.17,inactive
MICALL1 (MICAL like 1),1.8,inactive
KRTAP4-2 (keratin associated protein 4-2),1.38,inactive
KRTAP4-2 (keratin associated protein 4-2),1.68,inactive
KRTAP4-2 (keratin associated protein 4-2),1.7,inactive
KRTAP4-2 (keratin associated protein 4-2),1.06,inactive
ETAA1 (ETAA1 activator of ATR kinase),0.17,inactive
ETAA1 (ETAA1 activator of ATR kinase),0.92,inactive
ETAA1 (ETAA1 activator of ATR kinase),0.82,inactive
ETAA1 (ETAA1 activator of ATR kinase),0.72,inactive
IGIP (IgA inducing protein),0.75,inactive
IGIP (IgA inducing protein),2.29,inactive
IGIP (IgA inducing protein),1.96,inactive
IGIP (IgA inducing protein),2.28,inactive
UBC (ubiquitin C),0.79,inactive
UBC (ubiquitin C),-0.82,inactive
UBC (ubiquitin C),-1.57,active
UBC (ubiquitin C),-1.02,inactive
OAS3 (2'-5'-oligoadenylate synthetase 3),-0.15,inactive
OAS3 (2'-5'-oligoadenylate synthetase 3),0.73,inactive
OAS3 (2'-5'-oligoadenylate synthetase 3),0.53,inactive
OAS3 (2'-5'-oligoadenylate synthetase 3),-0.41,inactive
C2CD2 (C2 calcium dependent domain containing 2),-0.95,inactive
C2CD2 (C2 calcium dependent domain containing 2),-0.36,inactive
C2CD2 (C2 calcium dependent domain containing 2),0.27,inactive
C2CD2 (C2 calcium dependent domain containing 2),-0.3,inactive
UGT3A1 (UDP glycosyltransferase family 3 member A1),1.53,inactive
UGT3A1 (UDP glycosyltransferase family 3 member A1),3.86,active
UGT3A1 (UDP glycosyltransferase family 3 member A1),0.56,inactive
UGT3A1 (UDP glycosyltransferase family 3 member A1),-0.06,inactive
SLC29A3,0.18,inactive
SLC29A3,0.83,inactive
SLC29A3,-0.32,inactive
SLC29A3,-0.78,inactive
KCNK17 (potassium two pore domain channel subfamily K member 17),0,inactive
KCNK17 (potassium two pore domain channel subfamily K member 17),0.74,inactive
KCNK17 (potassium two pore domain channel subfamily K member 17),0.32,inactive
KCNK17 (potassium two pore domain channel subfamily K member 17),-0.42,inactive
CANT1 (calcium activated nucleotidase 1),0.49,inactive
CANT1 (calcium activated nucleotidase 1),0.61,inactive
CANT1 (calcium activated nucleotidase 1),0.02,inactive
CANT1 (calcium activated nucleotidase 1),-0.42,inactive
PIGF (phosphatidylinositol glycan anchor biosynthesis class F),2.25,inactive
PIGF (phosphatidylinositol glycan anchor biosynthesis class F),1.88,inactive
PIGF (phosphatidylinositol glycan anchor biosynthesis class F),1.83,inactive
